These are yes or no findings as the source states them, for the method shown. For some assays here: Binding seen in cells or lysates may run through a third protein. Some binding calls cover weakened binding; strength is not graded here. Where a sequence is shown, tags or fusion partners need not be part of it.
T1: ROC1-NYFP (rice) (UniProt Q6ZAR0)
T1 sequence: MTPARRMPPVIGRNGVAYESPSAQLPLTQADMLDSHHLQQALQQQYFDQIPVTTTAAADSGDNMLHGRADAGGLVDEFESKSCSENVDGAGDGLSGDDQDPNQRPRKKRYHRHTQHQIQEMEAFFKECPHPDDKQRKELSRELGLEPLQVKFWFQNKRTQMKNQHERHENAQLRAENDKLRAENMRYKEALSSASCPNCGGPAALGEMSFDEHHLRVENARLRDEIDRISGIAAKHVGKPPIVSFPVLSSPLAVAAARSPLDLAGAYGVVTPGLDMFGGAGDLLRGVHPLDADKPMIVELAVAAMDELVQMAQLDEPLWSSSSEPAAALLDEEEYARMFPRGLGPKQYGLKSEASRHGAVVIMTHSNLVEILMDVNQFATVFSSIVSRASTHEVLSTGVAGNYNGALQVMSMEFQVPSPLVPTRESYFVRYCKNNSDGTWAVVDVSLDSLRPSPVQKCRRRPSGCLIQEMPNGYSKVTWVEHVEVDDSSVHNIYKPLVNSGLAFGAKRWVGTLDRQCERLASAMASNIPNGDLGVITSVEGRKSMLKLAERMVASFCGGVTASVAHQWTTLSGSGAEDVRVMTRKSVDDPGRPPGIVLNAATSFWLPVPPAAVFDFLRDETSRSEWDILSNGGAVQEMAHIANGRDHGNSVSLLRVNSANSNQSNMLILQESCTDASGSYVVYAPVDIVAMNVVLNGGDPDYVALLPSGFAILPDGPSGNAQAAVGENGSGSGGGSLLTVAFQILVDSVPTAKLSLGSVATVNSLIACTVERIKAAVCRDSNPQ

T2: BD-ROC1 (rice) (UniProt Q6ZAR0)
T2 sequence: T1 sequence

T3: ROC1-Flag (rice) (UniProt Q6ZAR0)
T3 sequence: T1 sequence

B1: ROC1-CYFP (protein, UniProt Q6ZAR0 1-784)
chain: T1 sequence
B2: AD-ROC8 (protein, UniProt Q69T58 1-710)
chain: MDFGDEPEGSDSQRRRKRYHRHTPRQIQQLEAMFKECPHPDENQRAQLSRELGLEPRQIKFWFQNRRTQMKAQHERADNCFLRAENDKIRCENIAIREALKNVICPTCGGPPVGEDYFDEQKLRMENARLKEELDRVSNLTSKYLGRPFTQLPPATPPMTVSSLDLSVGGMGGPSLDLDLLSGGSSGIPFQLPAPVSDMERPMMAEMATRAMDELIRLAQAGDHIWSKSPGGGVSGGDARETLNVDTYDSIFSKPGGSYRAPSINVEGSRESGLVLMSAVALADVFMDTNKWMEFFPSIVSKAHTIDVLVNGMGGRSESLILMYEELHIMTPAVPTREVNFVRYCRQIEQGLWAIADVSVDLQRDAHFGAPPPRSRRLPSGCLIADMANGYSKVTWVEHMEVEEKSPINVLYRDLVLSGAAFGAHRWLAALQRACERYASLVALGVPHHIAGVTPEGKRSMMKLSQRMVNSFCSSLGASQMHQWTTLSGSNEVSVRVTMHRSTDPGQPNGVVLSAATSIWLPVPCDHVFAFVRDENTRSQWDVLSHGNQVQEVSRIPNGSNPGNCISLLRGLNASQNSMLILQESCTDASGSLVVYSPIDIPAANVVMSGEDPSSIPLLPSGFTILPDGRPGSAAGASTSSAGPLAAARGGGGGGAGGGSVVTVAFQILVSSLPSSKLNAESVATVNGLITTTVEQIKAALNCSAHGHHP
B3: AD-ROC5 (protein, UniProt Q6EPF0 1-804)
chain: MSFGGLFDGGGGGGMQFPFASGFASSPALSLALDNAGGGIGGRMLGGGAGAGSSAGGAMTRDTEAENDSRSGSDHLDAISAAGEDDVEDAEPSNSRKRKKRYHRHTPQQIQELEALFKECPHPDEKQRAELSRRLSLDARQVKFWFQNRRTQMKTQLERHENALLKQENDKLRAENMTIREAMRSPMCGSCGSPAMLGEVSLEEQHLRIENARLKDELNRVCALATKFLGKPISLLSPPPLLQPHLSLPMPNSSLELAIGGIGGLGSLGTLPGCMNEFAGGVSSPMGTVITPARATGAAIPSLVGNIDRSVFLELAISAMDELVKMAQMDDPLWVPALPGSPSKEVLNFEEYLHSFLPCIGMKPAGYVSEASRESGLVIIDNSLALVETLMDERRWSDMFSCMIAKATVLEEVSTGIAGSRNGALLLMKAELQVLSPLVPIREVTFLRFCKQLAEGAWAVVDVSIDGLVRDHNSGTAPTGGNVKCRRVPSGCVMQDTPNGYCKVTWVEHTEYDEASVHQLYRPLLRSGLAFGARRWLATLQRQCECLAILMSSATVTANDSTAISQEGKRSMLKLARRMTENFCAGVSASSAREWSKLDGATGSIGEDVRVMARKSVSEPGEPPGVVLSAATSVWVPVAPEKLFNFLRDEQLRAEWDILSNGGPMQEMTQIAKGQRDGNSVSLLRASAVSANQSSMLILQETCTDASGSIVVYAPVDIPAMQLVMNGGDSTYVALLPSGFAILPDGPRIGATGYETGGSLLTVAFQILVNNQPTAKLTVESVETVNNLISCTIKKIKTALQCDA
B4: AD-ROC1 (protein, UniProt Q6ZAR0 1-784)
chain: T1 sequence
B5: ROC5-CYFP (protein, UniProt Q6EPF0 1-804)
chain: B3 chain
B6: ROC8-CYFP (protein, UniProt Q69T58 1-710)
chain: B2 chain
B7: ROC1-GFP (protein, UniProt Q6ZAR0 1-784)
chain: T1 sequence
B8: ROC5-GFP (protein, UniProt Q6EPF0 1-804)
chain: B3 chain

Key:
ROC1-NYFP (rice) = biological target: T1, ROC1-NYFP (rice); assay: split reporter; BiFC with split YFP in N. benthamiana leaves, 2 days after infiltration, confocal microscopy; H2B-mCherry as nuclear marker
BD-ROC1 (rice) [1] = biological target: T2, BD-ROC1 (rice); assay: two-hybrid; yeast AH109, pGBKT7 bait and pGADT7 prey; liquid beta-galactosidase activity assay (ONPG) after culture at 30 °C for 2 days
BD-ROC1 (rice) [2] = biological target: T2, BD-ROC1 (rice); assay: two-hybrid; yeast AH109, pGBKT7 bait and pGADT7 prey; growth of dilutions on SD/-Leu-Trp-Ade-His without and with 20 mM 3AT, 30 °C, 2 days
ROC1-Flag (rice) = biological target: T3, ROC1-Flag (rice); assay: co-IP; ROC1-Flag co-expressed with GFP fusions in N. benthamiana; extract in NB1 buffer; anti-FLAG affinity beads, 3 h, 6 washes; blot with anti-GFP

Row | Binder | binding (ROC1-NYFP (rice)) | binding (BD-ROC1 (rice) [1]) | binding (BD-ROC1 (rice) [2]) | further results
1 | B1 | binds |  |  | 
2 | B2 |  | binds | binds | 
3 | B3 |  | binds | binds | 
4 | B4 |  | binds weakly | binds weakly | 
5 | B5 | binds |  |  | 
6 | B6 | binds |  |  | 
7 | B7 |  |  |  | binding (ROC1-Flag (rice)): binds
8 | B8 |  |  |  | binding (ROC1-Flag (rice)): binds

— publication PMC11282044
